Assay results taken from paper PMC12136450 (PLOS Biology, 2025).
Results are given in words; binding and its absence hold for the method and conditions named. Some entries that bind do so weakly or less than the wild type. For part of these data: Where a sequence is shown, tags or fusion partners need not be part of it.

T1: strep-tagged Cpi1 (wild type) (Escherichia coli strain ATCC 11775) (UniProt P0DXY0)
T1 sequence: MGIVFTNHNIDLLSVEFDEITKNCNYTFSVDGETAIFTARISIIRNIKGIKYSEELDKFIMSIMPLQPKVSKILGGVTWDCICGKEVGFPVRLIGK

T2: Cpi1 (cognate immunity protein of Cpe1), co-expressed with Cpe1tox (Escherichia coli strain ATCC 11775) (UniProt P0DXY0)
T2 sequence: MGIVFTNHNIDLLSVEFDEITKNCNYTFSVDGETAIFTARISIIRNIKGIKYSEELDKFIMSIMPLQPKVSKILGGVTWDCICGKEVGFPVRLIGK

T3: His-tagged Cpe1tox^C362A (catalytically inactive toxin domain) (Escherichia coli strain ATCC 11775) (UniProt P0DXX9)
T3 sequence: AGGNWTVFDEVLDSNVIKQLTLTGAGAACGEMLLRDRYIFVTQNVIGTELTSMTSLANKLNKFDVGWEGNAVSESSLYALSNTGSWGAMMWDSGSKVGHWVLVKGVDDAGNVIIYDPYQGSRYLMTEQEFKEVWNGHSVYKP


Experiments:
[1] = target: T1, strep-tagged Cpi1 (wild type) (Escherichia coli strain ATCC 11775); test: pull-down; both purified
[2] = target: T2, Cpi1 (cognate immunity protein of Cpe1), co-expressed with Cpe1tox (Escherichia coli strain ATCC 11775); test: crystal structure; both purified
[3] = target: T3, His-tagged Cpe1tox^C362A (catalytically inactive toxin domain) (Escherichia coli strain ATCC 11775); test: pull-down; […]; 20 mM Tris-HCl pH 7, 300 mM NaCl, 1 mM DTT; […]; both purified

Molecule	binding [1]	binding [2]	binding [3]
Cpe1tox (toxin domain of cysteine protease effector 1), His-tagged (from UniProt P0DXX9 338-479) (domain or fragment)	binds	binds	
strep-tagged Cpi1 (wild type) (natural protein, source: E. coli BL21 (DE3), pETDuet-1, purified (streptavidin resin, gel filtration)) MGIVFTNHNIDLLSVEFDEITKNCNYTFSVDGETAIFTARISIIRNIKGIKYSEELDKFIMSIMPLQPKVSKILGGVTWDCICGKEVGFPVRLIGK			binds
